Publication PMC11525750
No constants are given. Whether binding was seen depends on the method and setting. Binding seen in cells or lysates may run through a third protein. A yes stands for co-enrichment or nearness to the bait. Other partners may have been found.

Amino acid sequences for entries named in this document (tags omitted).
UniProt Q8NCD3: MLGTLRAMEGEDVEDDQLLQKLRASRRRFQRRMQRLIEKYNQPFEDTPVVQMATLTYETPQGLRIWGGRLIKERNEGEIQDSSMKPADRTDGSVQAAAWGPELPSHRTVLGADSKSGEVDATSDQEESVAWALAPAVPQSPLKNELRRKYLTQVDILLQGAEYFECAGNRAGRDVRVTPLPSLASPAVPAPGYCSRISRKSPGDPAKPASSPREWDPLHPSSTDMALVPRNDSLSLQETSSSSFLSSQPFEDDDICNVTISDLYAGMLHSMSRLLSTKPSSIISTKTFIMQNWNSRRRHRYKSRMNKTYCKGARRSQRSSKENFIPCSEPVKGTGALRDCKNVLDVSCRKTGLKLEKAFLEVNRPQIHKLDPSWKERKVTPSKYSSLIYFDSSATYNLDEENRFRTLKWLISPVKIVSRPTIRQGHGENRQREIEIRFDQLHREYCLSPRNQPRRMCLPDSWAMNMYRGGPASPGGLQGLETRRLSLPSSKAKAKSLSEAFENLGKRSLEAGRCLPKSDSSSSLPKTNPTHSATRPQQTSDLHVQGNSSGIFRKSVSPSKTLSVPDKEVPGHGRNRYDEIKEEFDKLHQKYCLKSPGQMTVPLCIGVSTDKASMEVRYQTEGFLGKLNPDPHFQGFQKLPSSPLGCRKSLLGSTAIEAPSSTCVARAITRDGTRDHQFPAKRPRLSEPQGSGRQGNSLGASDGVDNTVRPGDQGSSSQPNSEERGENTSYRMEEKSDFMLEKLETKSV

How the values were obtained:
[1] = biological target: Holliday junction recognition protein (HJURP) (human (endogenous in C4-2 and PC3)) (UniProt Q8NCD3); experiment: affinity purification with mass spectrometry; C4-2 cells treated with 10 μM H2O2 for 2 min and 20 mM MMTS, endogenous HJURP precipitated with anti-HJURP antibody (IgG as control), non-reducing SDS-PAGE, disulfide-linked intermediates >75 KDa analysed by LC-MS/MS; in duplicate
[2] = biological target: Holliday junction recognition protein (HJURP) (human (endogenous in C4-2 and PC3)) (UniProt Q8NCD3); experiment: affinity purification with mass spectrometry; C4-2 lysate, Co-IP with anti-HJURP antibody (IgG as control), reductive SDS-PAGE, the gel bands of all the proteins analysed by LC-MS/MS; in duplicate

- binding [1]: binds
- binding [2]: binds
B1: peroxiredoxin 1 (PRDX1) (enzyme, UniProt Q06830 1-199)
chain: MSSGNAKIGHPAPNFKATAVMPDGQFKDISLSDYKGKYVVFFFYPLDFTFVCPTEIIAFSDRAEEFKKLNCQVIGASVDSHFCHLAWVNTPKKQGGLGPMNIPLVSDPKRTIAQDYGVLKADEGISFRGLFIIDDKGILRQITVNDLPVGRSVDETLRLVQAFQFTDKHGEVCPAGWKPGSDTIKPDVQKSKEYFSKQK
